# From the supplement of paper PMC11732987, “Enantioselective OTUD7B fragment discovery through chemoproteomics screening and high-throughput optimisation” (Communications Chemistry, 2025)
# Sequences of proteins named here, by UniProt entry; tags and fusion partners are left off. A change or cut given only in a name is not applied to a line headed by its entry.
# UniProt O00743: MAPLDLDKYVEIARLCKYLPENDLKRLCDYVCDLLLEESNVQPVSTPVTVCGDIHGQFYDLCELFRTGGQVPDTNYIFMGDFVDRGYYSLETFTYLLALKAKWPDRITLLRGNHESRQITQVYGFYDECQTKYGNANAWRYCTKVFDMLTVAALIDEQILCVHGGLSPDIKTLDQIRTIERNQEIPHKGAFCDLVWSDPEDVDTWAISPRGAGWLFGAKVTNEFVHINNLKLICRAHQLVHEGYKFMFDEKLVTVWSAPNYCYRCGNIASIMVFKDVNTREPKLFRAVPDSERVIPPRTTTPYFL
# UniProt O14802: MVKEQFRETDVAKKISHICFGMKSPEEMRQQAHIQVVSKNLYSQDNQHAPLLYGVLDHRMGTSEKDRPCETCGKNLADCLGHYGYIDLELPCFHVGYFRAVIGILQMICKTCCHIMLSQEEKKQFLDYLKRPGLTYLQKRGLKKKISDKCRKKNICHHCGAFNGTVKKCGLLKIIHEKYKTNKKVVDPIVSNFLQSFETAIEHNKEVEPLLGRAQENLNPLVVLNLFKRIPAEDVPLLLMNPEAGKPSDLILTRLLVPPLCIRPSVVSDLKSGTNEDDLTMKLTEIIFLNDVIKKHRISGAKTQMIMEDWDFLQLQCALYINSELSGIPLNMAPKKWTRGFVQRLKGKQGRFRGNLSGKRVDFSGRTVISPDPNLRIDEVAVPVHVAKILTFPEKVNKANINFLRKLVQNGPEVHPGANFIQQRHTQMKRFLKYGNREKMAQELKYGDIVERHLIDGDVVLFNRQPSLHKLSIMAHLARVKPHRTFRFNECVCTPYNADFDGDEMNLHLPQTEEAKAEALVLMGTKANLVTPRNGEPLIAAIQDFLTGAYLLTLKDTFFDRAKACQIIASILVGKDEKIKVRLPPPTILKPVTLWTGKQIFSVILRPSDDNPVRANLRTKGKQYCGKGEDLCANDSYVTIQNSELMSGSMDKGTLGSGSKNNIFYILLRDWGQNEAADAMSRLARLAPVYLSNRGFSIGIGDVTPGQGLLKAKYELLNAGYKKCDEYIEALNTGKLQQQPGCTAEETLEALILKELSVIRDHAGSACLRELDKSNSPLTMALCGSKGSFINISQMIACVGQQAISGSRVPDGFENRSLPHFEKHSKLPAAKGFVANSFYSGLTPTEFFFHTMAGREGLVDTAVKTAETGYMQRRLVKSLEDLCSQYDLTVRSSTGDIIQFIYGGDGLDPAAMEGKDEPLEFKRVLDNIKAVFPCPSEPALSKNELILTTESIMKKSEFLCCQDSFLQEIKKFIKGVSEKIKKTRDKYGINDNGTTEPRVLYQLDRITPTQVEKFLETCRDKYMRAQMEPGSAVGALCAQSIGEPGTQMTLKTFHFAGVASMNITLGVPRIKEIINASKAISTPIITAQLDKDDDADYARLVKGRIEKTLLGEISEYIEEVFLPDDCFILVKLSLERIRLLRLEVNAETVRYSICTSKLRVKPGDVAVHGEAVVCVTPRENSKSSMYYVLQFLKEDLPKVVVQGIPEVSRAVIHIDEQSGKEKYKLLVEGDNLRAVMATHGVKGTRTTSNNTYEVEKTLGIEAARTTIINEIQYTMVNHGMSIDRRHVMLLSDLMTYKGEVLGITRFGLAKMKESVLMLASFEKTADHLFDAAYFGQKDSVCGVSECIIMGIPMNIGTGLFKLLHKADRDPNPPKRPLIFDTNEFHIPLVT
# UniProt P24723, whole entry, looked up: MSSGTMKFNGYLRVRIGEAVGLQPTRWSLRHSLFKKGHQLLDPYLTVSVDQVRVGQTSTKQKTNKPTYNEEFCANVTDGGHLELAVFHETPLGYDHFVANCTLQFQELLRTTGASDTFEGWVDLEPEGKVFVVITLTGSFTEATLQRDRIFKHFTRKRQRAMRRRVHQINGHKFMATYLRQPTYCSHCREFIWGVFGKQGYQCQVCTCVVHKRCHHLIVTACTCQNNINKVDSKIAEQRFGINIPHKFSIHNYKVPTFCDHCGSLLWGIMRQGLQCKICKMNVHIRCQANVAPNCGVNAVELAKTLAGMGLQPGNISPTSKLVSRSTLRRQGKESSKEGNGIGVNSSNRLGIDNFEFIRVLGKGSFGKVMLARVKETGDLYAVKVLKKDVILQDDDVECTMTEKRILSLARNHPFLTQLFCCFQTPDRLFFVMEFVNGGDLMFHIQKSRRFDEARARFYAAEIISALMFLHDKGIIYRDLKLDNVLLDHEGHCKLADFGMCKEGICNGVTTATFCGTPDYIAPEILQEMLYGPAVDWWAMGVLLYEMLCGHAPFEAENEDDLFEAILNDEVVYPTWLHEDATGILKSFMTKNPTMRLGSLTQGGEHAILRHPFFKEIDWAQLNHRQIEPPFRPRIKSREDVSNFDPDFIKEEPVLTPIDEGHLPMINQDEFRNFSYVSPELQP
# UniProt P10644, whole entry, looked up: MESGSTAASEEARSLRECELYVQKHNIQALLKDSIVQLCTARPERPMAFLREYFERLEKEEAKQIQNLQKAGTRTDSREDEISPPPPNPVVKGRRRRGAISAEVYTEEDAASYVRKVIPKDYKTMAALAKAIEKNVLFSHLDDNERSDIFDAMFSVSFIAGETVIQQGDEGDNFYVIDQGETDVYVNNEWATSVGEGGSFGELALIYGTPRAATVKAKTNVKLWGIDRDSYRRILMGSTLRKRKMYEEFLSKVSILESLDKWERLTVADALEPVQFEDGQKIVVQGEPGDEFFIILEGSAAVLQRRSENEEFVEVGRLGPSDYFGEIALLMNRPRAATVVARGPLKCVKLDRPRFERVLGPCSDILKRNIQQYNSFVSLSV
# UniProt P53041: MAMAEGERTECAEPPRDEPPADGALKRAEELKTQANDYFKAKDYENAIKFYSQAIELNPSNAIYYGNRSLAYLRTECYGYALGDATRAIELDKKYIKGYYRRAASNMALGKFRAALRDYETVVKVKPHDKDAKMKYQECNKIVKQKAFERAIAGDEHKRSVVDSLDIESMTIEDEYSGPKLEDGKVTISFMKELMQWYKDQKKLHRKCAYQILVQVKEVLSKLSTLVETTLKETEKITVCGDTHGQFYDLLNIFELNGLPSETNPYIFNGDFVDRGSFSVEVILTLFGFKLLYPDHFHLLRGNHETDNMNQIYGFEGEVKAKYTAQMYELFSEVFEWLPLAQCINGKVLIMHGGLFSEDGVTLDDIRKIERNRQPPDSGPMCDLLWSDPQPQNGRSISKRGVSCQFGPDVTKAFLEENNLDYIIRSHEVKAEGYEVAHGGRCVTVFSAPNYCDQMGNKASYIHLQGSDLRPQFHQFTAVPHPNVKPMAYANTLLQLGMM
# UniProt P05771: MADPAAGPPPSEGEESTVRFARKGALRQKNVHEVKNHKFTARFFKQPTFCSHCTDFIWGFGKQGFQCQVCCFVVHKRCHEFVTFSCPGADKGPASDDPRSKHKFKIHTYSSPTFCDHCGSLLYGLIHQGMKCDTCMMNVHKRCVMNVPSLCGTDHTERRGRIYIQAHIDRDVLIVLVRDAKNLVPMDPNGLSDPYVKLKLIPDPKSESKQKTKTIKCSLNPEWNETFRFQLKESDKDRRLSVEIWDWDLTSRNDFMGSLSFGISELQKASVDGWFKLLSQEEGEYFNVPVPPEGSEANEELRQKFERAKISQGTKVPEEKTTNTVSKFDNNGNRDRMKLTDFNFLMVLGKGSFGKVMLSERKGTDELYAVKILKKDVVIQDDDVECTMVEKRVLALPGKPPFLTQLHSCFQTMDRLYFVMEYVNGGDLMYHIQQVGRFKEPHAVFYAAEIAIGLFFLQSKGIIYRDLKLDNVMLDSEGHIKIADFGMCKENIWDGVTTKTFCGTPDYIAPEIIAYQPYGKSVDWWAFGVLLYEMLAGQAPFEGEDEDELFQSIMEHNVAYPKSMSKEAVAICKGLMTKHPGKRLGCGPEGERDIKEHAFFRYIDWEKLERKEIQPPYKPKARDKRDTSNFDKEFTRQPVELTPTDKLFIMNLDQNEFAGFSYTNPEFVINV
# UniProt Q9NY27: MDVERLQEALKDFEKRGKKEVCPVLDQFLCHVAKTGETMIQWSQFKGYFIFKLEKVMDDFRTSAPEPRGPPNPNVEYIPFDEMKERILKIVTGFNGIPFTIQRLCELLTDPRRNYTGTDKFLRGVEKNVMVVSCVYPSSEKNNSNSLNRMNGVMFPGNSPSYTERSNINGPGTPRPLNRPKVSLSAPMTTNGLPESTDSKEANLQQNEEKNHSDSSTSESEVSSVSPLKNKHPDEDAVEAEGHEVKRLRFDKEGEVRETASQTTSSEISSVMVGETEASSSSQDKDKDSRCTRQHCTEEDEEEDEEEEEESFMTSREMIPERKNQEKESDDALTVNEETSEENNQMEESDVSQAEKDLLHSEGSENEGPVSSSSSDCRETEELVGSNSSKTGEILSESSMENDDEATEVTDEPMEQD
# UniProt Q8WUA2: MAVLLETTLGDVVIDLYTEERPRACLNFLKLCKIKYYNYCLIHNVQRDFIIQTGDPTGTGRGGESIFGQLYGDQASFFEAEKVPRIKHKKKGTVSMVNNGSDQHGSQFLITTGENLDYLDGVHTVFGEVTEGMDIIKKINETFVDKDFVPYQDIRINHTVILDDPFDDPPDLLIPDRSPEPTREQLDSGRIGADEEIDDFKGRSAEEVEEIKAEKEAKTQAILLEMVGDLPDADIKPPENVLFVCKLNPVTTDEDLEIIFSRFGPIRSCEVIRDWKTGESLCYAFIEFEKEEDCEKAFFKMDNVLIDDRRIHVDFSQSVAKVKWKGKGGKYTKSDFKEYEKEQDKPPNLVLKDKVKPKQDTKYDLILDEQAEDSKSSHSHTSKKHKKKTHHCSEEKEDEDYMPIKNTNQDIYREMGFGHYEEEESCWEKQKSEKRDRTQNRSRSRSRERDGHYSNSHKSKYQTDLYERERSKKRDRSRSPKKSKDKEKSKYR
# UniProt Q86YN6: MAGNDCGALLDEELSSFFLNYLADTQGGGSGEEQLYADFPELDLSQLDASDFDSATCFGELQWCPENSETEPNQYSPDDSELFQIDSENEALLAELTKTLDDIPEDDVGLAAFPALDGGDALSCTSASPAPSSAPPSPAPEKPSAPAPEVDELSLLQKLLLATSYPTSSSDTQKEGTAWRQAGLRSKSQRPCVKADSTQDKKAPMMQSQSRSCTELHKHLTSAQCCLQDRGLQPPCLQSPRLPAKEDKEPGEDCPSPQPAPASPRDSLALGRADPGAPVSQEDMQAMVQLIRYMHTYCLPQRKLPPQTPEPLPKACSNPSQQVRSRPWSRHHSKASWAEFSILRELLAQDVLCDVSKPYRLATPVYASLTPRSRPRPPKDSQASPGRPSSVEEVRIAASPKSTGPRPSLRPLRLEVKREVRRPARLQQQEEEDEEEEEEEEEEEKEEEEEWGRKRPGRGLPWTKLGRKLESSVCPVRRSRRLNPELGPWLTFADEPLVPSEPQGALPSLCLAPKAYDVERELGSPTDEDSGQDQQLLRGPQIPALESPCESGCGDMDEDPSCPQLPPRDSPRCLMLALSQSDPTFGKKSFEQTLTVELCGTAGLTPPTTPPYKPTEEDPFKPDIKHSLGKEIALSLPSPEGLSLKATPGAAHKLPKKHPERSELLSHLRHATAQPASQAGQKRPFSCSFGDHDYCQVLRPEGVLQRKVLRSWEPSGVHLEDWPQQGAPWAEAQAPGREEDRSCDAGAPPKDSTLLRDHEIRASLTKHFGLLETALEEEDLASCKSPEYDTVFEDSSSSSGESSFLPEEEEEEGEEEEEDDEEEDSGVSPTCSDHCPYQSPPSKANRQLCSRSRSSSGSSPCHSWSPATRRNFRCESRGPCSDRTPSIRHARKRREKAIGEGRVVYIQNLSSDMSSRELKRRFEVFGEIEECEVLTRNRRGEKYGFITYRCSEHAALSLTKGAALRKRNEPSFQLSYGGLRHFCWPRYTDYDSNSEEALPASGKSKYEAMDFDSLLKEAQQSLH
# The list shows a part of the results. The data scatter; read single values as rough.
# Compound: ClCC(=O)N[C@H]1CCCc2ccccc12
# Assay: log2 mean competition ratio of IA-DTB cysteine labelling (DMSO/compound) (log2 ratio); higher = stronger cysteine engagement by compound
# Conditions: treatment time: 4 h, cell line lysate: HEK293T
# Method: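 IA-DTB competitive cysteine chemoproteomics in HEK293T RIPA lysate. Lysates were treated with compound 29 or 30 at 50 or 200 µM for 4 h, then IA-DTB (500 µM, 1 h), trypsin-digested, NeutrAvidin-enriched and analysed by diaPASEF. Competition ratio = intensity DMSO / intensity compound (n=4 treated, n=64 DMSO); binding: mean log2 CR ≥ 1 and p ≤ 0.05 plus QC filters. Target is the cysteine site.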
Target,log2 mean competition ratio (50 µM),log2 mean competition ratio (200 µM)
PPM1K C97,-0.359,-0.0258
PPP6C C129 (UniProt O00743),-0.193,-0.179
PREP C25,0.565,-0.00632
POLR3A C742 (UniProt O14802),0.0168,0.16
PRKCH C501 (UniProt P24723),0.112,0.241
POLRMT C119 (UniProt O00411),0.491,0.483
PRPF18 C325 (UniProt Q99633),0.079,0.113
PPP6R2 C49 (UniProt O75170),-0.269,-0.135
PREP C57,-0.379,0.0452
POLR2B C945 (UniProt P30876),0.554,0.175
PPP1CC;PPP1CA C127;(C127),0.119,-0.000287
POLR3A C883 (UniProt O14802),0.118,-0.173
PRKAR1A C362 (UniProt P10644),-0.0653,-0.104
POLR3B C815 (UniProt Q9NW08),0.013,-0.472
POLR3A C767 (UniProt O14802),0.113,-0.0119
PPP5C C11 (UniProt P53041),-0.401,-0.00142
PRKCB C386 (UniProt P05771),-0.28,-0.231
PPP4R2 C134 (UniProt Q9NY27),0.0916,-0.194
PPIL4 C426 (UniProt Q8WUA2),0.065,-0.019
POLR3A C934 (UniProt O14802),-0.0628,0.0868
PPARGC1B C316 (UniProt Q86YN6),0.196,0.0294
PRKCG C502 (UniProt P05129),0.183,0.103

# A few values from above:
# log2 mean competition ratio (50 µM) with PRKCG C502 (UniProt P05129) is entered as 0.183
# log2 mean competition ratio (50 µM) with POLR3A C934 (UniProt O14802) is entered as -0.0628
